Counter-ions that a name gives are not always drawn. ± gives the standard deviation of the averaged measurements. This is one part of the list. The data scatter; read single values as rough.
What was measured:
[1] = tested on: hAMSC donor 1; assay: Hoechst total cell count ratio vs vehicle control; higher = more cells (less toxicity)
[2] = tested on: hAMSC donor 2; assay: as above
[3] = tested on: hAMSC donor 1; assay: transgenic luciferase activity (RLU/mg protein) fold change vs vehicle control (ratio); higher = more transgene expression
[4] = tested on: hAMSC donor 1; assay: transfection efficiency (EGFP+ cells / Hoechst count) fold change vs vehicle control (ratio); hAMSC are human adipose-derived mesenchymal stem cells given an EGFP-luciferase plasmid by lipofection; higher = enhanced transfection
[5] = tested on: hAMSC donor 2; assay: as above
[6] = priming compound concentration 0.2 µM
[7] = priming compound concentration 1.7 µM
[8] = priming compound concentration 13 µM

Compound | Hoechst total cell count ratio [1, 6] | Hoechst total cell count ratio [1, 7] | Hoechst total cell count ratio [1, 8] | Hoechst total cell count ratio [2, 6] | Hoechst total cell count ratio [2, 7] | Hoechst total cell count ratio [2, 8] | transgenic luciferase activity [3, 8] | transfection efficiency [4, 6] | transfection efficiency [4, 7] | transfection efficiency [4, 8] | transfection efficiency [5, 6] | transfection efficiency [5, 7] | transfection efficiency [5, 8] | transgenic luciferase activity [3, 6]
CCN(CC)C(=O)C1(c2ccccc2)CC1CN (stereo not given) [Milnacipran hydrochloride] | 1.23 ± 0.077 | 1.1 ± 0.12 | 1.06 ± 0.018 | 1.28 ± 0.23 | 1.3 ± 0.086 | 1.26 ± 0.2 | 0.981 ± 0.059 | 1.1 ± 0.14 | 0.951 ± 0.06 | 1.12 ± 0.27 | 1.12 ± 0.14 | 0.959 ± 0.088 | 1.18 ± 0.14 | 
O=C(O)Cc1ccccc1Nc1c(Cl)cccc1Cl [Diclofenac sodium] | 1.17 ± 0.016 | 0.982 ± 0.13 | 0.986 ± 0.23 | 1.08 ± 0.034 | 0.85 ± 0.22 | 0.867 ± 0.29 | 1.03 ± 0.17 | 0.866 ± 0.22 | 1.44 ± 0.2 | 0.878 ± 0.29 | 1.09 ± 0.1 | 1.51 ± 0.16 | 1.15 ± 0.33 | 
CC(C)/N=c1\cc2n(-c3ccc(Cl)cc3)c3ccccc3nc-2cc1Nc1ccc(Cl)cc1 [Clofazimine] | 1.01 ± 0.1 | 0.999 ± 0.031 | 1.07 ± 0.062 | 0.989 ± 0.12 | 1.03 ± 0.066 | 1 ± 0.044 |  | 1.11 ± 0.13 | 0.981 ± 0.16 | 0.748 ± 0.1 | 1.16 ± 0.2 | 0.961 ± 0.15 | 1.04 ± 0.2 | 0.812 ± 0.22
Cc1c(OCC(F)(F)F)ccnc1C[S+]([O-])c1nc2ccccc2[nH]1 (stereo not given) [Lansoprazole] | 1.52 ± 0.24 | 1.54 ± 0.078 | 1.3 ± 0.18 | 1.14 ± 0.084 | 1.15 ± 0.25 | 1.28 ± 0.32 | 0.586 ± 0.45 | 0.974 ± 0.2 | 0.894 ± 0.13 | 1.21 ± 0.2 | 1.04 ± 0.099 | 1.1 ± 0.16 | 1.25 ± 0.37 | 
O=C(CCNNC(=O)c1ccncc1)NCc1ccccc1 [Nialamide] | 1.18 ± 0.2 | 1.21 ± 0.19 | 1.32 ± 0.3 | 0.943 ± 0.16 | 1.99 ± 0.92 | 0.832 ± 0.21 | 0.687 ± 0.14 | 1.12 ± 0.57 | 1.28 ± 0.35 | 0.973 ± 0.37 | 1.14 ± 0.25 | 1.17 ± 0.07 | 1.24 ± 0.17 | 
OC(CCN1CCCC1)(c1ccccc1)C1CCCCC1 (stereo not given) [Procyclidine hydrochloride] | 1.04 ± 0.036 | 1.03 ± 0.2 | 1.05 ± 0.034 | 1.08 ± 0.074 | 1.24 ± 0.11 | 1.28 ± 0.21 |  | 1.09 ± 0.2 | 1.02 ± 0.21 | 0.82 ± 0.29 | 1.09 ± 0.081 | 0.873 ± 0.18 | 0.953 ± 0.19 | 0.7 ± 0.14
O=C1[C@H](CC[C@H](O)c2ccc(F)cc2)[C@@H](c2ccc(O)cc2)N1c1ccc(F)cc1 [Ezetimibe] | 1.34 ± 0.071 | 1.19 ± 0.068 | 1.15 ± 0.069 | 0.94 ± 0.08 | 1.32 ± 0.14 | 1.1 ± 0.092 | 0.786 ± 0.1 | 1.41 ± 0.35 | 1.64 ± 0.26 | 1.47 ± 0.48 | 1.15 ± 0.073 | 1.02 ± 0.23 | 0.818 ± 0.013 | 
COc1cc(/C=C/c2ccc(O)cc2)cc(OC)c1 [Pterostilbene] | 1.31 ± 0.29 | 1.1 ± 0.041 | 0.947 ± 0.14 | 1.25 ± 0.24 | 1.26 ± 0.093 | 1.24 ± 0.2 | 1.57 ± 0.31 | 1.03 ± 0.29 | 1.09 ± 0.28 | 1.47 ± 0.22 | 1.13 ± 0.2 | 1.34 ± 0.074 | 1.11 ± 0.11 | 
CC1CCN(CCCC(=O)c2ccc(F)cc2)CC1 [Methylperone hydrochloride] | 1.36 ± 0.14 | 1.26 ± 0.049 | 1.25 ± 0.15 | 1.44 ± 0.26 | 1.08 ± 0.081 | 1.09 ± 0.18 |  | 1.06 ± 0.28 | 1.2 ± 0.2 | 0.989 ± 0.27 | 0.745 ± 0.096 | 0.888 ± 0.12 | 0.817 ± 0.17 | 1.11 ± 0.37
NNCCc1ccccc1 [Phenelzine sulfate] | 1.33 ± 0.18 | 1.29 ± 0.091 | 1.23 ± 0.042 | 0.947 ± 0.12 | 0.958 ± 0.13 | 1.02 ± 0.16 |  | 1.05 ± 0.23 | 1.2 ± 0.18 | 1.09 ± 0.11 | 0.953 ± 0.2 | 1.11 ± 0.064 | 1.08 ± 0.24 | 0.654 ± 0.17
CC(C)NCC(O)COc1ccc(CCOCC2CC2)cc1 (stereo not given) [Betaxolol hydrochloride] | 1.54 ± 0.23 | 1.41 ± 0.063 | 1.31 ± 0.096 | 1.14 ± 0.051 | 1.37 ± 0.054 | 1.3 ± 0.23 | 0.698 ± 0.12 | 1.06 ± 0.14 | 0.869 ± 0.16 | 0.907 ± 0.11 | 0.979 ± 0.081 | 0.92 ± 0.15 | 0.859 ± 0.29 | 
CC(=O)OCC(CCn1cnc2cnc(N)nc21)COC(C)=O [Famciclovir] | 1.12 ± 0.1 | 1.14 ± 0.22 | 1.11 ± 0.27 | 1.36 ± 0.29 | 1.05 ± 0.015 | 1.04 ± 0.37 | 0.812 ± 0.1 | 0.806 ± 0.15 | 1.25 ± 0.35 | 1.18 ± 0.66 | 1.06 ± 0.091 | 1.12 ± 0.2 | 0.935 ± 0.093 | 
CC1=Nc2ccc(Cl)cc2S(=O)(=O)N1 [Diazoxide] | 1.33 ± 0.16 | 1.36 ± 0.15 | 1.03 ± 0.077 | 1.16 ± 0.052 | 0.998 ± 0.041 | 1.23 ± 0.28 |  | 1.09 ± 0.16 | 0.811 ± 0.18 | 1.21 ± 0.35 | 1.02 ± 0.099 | 1.13 ± 0.056 | 0.851 ± 0.11 | 0.933 ± 0.18
CC[C@@]1(O)C(=O)OCc2c1cc1n(c2=O)Cc2cc3c(CN(C)C)c(O)ccc3nc2-1 [Topotecan hydrochloride] | 0.942 ± 0.16 | 0.697 ± 0.038 | 0.741 ± 0.13 | 0.697 ± 0.18 | 0.541 ± 0.16 | 0.414 ± 0.11 | 0.861 ± 0.16 | 0.987 ± 0.072 | 1.33 ± 0.21 | 1.63 ± 0.59 | 1.4 ± 0.19 | 1.63 ± 0.071 | 1.67 ± 0.2 | 
COc1ccnc(C[S+]([O-])c2nc3cc(OC(F)F)ccc3[nH]2)c1OC (stereo not given) [Pantoprazole sodium] | 1.21 ± 0.1 | 1.03 ± 0.064 | 1.19 ± 0.14 | 0.977 ± 0.18 | 1.23 ± 0.035 | 1.304 ± 0.007 | 0.898 ± 0.13 | 1.15 ± 0.088 | 1.27 ± 0.094 | 0.943 ± 0.11 | 1.21 ± 0.17 | 1.08 ± 0.098 | 0.748 ± 0.046 | 

Part of the list above, set out differently.

| Compound | Hoechst total cell count ratio [1, 6] | Hoechst total cell count ratio [1, 7] | Hoechst total cell count ratio [1, 8] | Hoechst total cell count ratio [2, 6] | Hoechst total cell count ratio [2, 7] | Hoechst total cell count ratio [2, 8] | transgenic luciferase activity [3, 8] | transfection efficiency [4, 6] | transfection efficiency [4, 7] | transfection efficiency [4, 8] | transfection efficiency [5, 6] | transfection efficiency [5, 7] | transfection efficiency [5, 8] | transgenic luciferase activity [3, 6] |
| --- | --- | --- | --- | --- | --- | --- | --- | --- | --- | --- | --- | --- | --- | --- |
| OC(CCN1CCCC1)(c1ccccc1)C1CCCCC1 (stereo not given) [Procyclidine hydrochloride] | 1.04 ± 0.036 | 1.03 ± 0.2 | 1.05 ± 0.034 | 1.08 ± 0.074 | 1.24 ± 0.11 | 1.28 ± 0.21 |  | 1.09 ± 0.2 | 1.02 ± 0.21 | 0.82 ± 0.29 | 1.09 ± 0.081 | 0.873 ± 0.18 | 0.953 ± 0.19 | 0.7 ± 0.14 |
| O=C1[C@H](CC[C@H](O)c2ccc(F)cc2)[C@@H](c2ccc(O)cc2)N1c1ccc(F)cc1 [Ezetimibe] | 1.34 ± 0.071 | 1.19 ± 0.068 | 1.15 ± 0.069 | 0.94 ± 0.08 | 1.32 ± 0.14 | 1.1 ± 0.092 | 0.786 ± 0.1 | 1.41 ± 0.35 | 1.64 ± 0.26 | 1.47 ± 0.48 | 1.15 ± 0.073 | 1.02 ± 0.23 | 0.818 ± 0.013 |  |

Reference: the supplement of paper PMC7238544
